Results taken from PMC8698288.
No constants are given. Whether binding was seen depends on the method and setting. Binding seen in cells or lysates may run through a third protein. A yes stands for co-enrichment or nearness to the bait. Other partners may have been found.

Target: FLAG-BirA*-MOB1 (Toxoplasma gondii MOB1 fused to the C-terminal end of FLAG-BirA*) (Toxoplasma gondii)
Assay: proximity labelling; BioID: FLAG-BirA*-MOB1 (control: FLAG-BirA*) tachyzoites in HFF cells, 150 µM biotin for 56 h; lysate in sucrose-based lysis buffer on agarose-streptavidin beads overnight at 18 °C; nanoLC-MS/MS; three biological replicates

B1: RNA recognition motif-containing protein TGME49_254210 (protein, UniProt S8FAB3 1-1123)
chain: MREGRTSRSLEGSYDERPLDRPRQKKVFIGNLPVDVTDADLRPVLEKAGPVRSLQIRSSRATGGGRPRSLFAHVEFESEQACEALFSVLDYRVFKGRTLRVEWCDDKQRQKQRGEAAGKRGRSAAFPSASVEREQPLEFADATSEPQRPPSLGRGGPGAPSAASDRRFGAQSSRGRPSGPDEEETHAAEPHGSDEGHFRLSGLKVFAPDGTITQGALEVASKLTRGDLRAILEEIQSLSAQMPATARKALSANPLLCHGLLHAQLALHMTPGEALNLEPLSPAQQETARKILIDRLSLELRLCGGRSPASLASSLCLDASFLPPESSSETVAADLSPDQTPLQESGYSGGGQLQRVCGASPSSGVAPVSEDSRPTQAPSRSAPARGPQAPPVSAGSSGGLSSSLACTESAVSSRADPSVPSPAVSVVPSLAVPSVSAQGVSSVSSEDVSSVSSQEVSSVSSPVASAVSGASFRAPPGSPDRGIGPKRADAGAAPDALPTQPQEAQLRQPLAEGFPAVSVSPGEPSPIRRPPTTEASGAGEGDKTPQESGGDTKGDTEQGVTRPSVSPHNVEAKASEEKRETSQGSGRAPPPSTGASLLTSGSSPTVASPRWPSTKSGDTPPIASTPLGGAASVCSSAPPLLPTPQLPPAFPLARNGREAAFESSRLLSGFPSVPAPARGVCLSVGATSRVPAPAPFAGAGELPGKALSTQTVPELEDRSKPLLANPPGFPLRPPRPAGASQPPGAFPTRAPPPARAGAAAFHNFSPVTPGRESSTPPTSTRPDFASAEEASRGLSQNYVERANVDGGGVAGGAARGPHHTPEGTVKLPGDLWASPVSPGSSFGAARPQASQQPLASTVRGTSLPAGGGMSVASPQDDAGCSQHLKRRRTEAPAGPQTQTTGIKEAPLTSRSGALFGVASSVLASPATRGTSGPVGAAGPSAHLGAGASPQVPQKSRRLSGTSSDSLPSFSSSLGAAACTAVAGEAGRSAHPQGAPGVSLQRQGLPPVAGGPAAGGESRRLQSVSSPQVLQQSAPAAVPQRSISAVGGDSDVPNNPVAAVLALEAAVEEAAPALVDEVMRVPTMLRNILTAPALQMLQWGEAERRQVLSIRKALRKRGCVVLDL
binding: binds

B2: Glutamate 5-kinase domain-containing protein TGME49_265010 (protein, UniProt S8EZC6 1-930)
chain: MLEGERKREDRGRRKTKEDGEETLECDCITAKGRHLLGPWLFLSASQSIFNVKTRAELEITDEMKREADAHSARATHGESHELPAERAAERSEKNRPEAEREERTADKSAMQGDNREEGKAEPSEKGDASPLLLPAGKEVKPGCLVVVKIGTSTLLTATQDRMNMNLSNLGKFVDTICELRMRGHTVVVVSSGAVGAGCVTLRLKQRPENLNTKQALAAVGQCRLMRLYEDLFSVREEKVAQVLLSRHDLLHQKSYQNFQAALKALLALDVIPIINENDSLATEQLRFGDNDTLAAHIAVAVDAHWLFILTDVDCLFDRNPHKYPDARPVAFVNRLTDVYAFLSDGACGAWGTGGMYTKVIASKIATNVGVHVAISNGKYPERILDMLEYARRSETTPTCPDTGSLLSLFPLRSPVREKHDHRRGCCRREATQGEATQGEATQGEAIQGEAIQGEATQGEATQGEAIQGEAIQGEATQGEATGGEATRGEATREVEEAKKKKEKKLARSCREAEKGAQRQRRAGGRGDGRAATGAPEAGERARDERAKSGGGQEEGEEISGKNLQEGEEREKRGNTDRANEWVHGAHASAEPGEVWGEEDRNPVLKEEESIEAGQKGQEQDEESPGENRAQGAFAGPRDGRGQPFSSLMICDNLQQMPFLGTVFIANDRRLHRKGDTRGWILSLPVRGKIFIDPGAVAALVQQKKSLFAAGVHHVSGEFAANDCVAIYITNFPRGSRRPSERPAGTKGSGPPGEQGSLTSGPSRRGQLPLERRNACASQSYGNQQRECLSRSSDEEAAFGFSFSNWCKSAAGSEGPPGGQTPFRAMGGLSESTVFAASPCPIECLEIARCISNVSSSELKVIKGRKSGEFRDLLGYAVDEEVAHRQHIVFTFMNGHEALKSFCLAKHAKFKLAGRTEPPFTQEADSRTGE
binding: binds

B3: Uncharacterized protein TGME49_213415 (protein, UniProt S8F8Z4 1-120)
chain: MAQGTLVNRIFEGARRLNSSAPCCLVGGSDQATAHTEDGVFGEGERKSGWKEVREVSRLSRGFIGAVAAAPWVFRRVSEEENKMLCSRKASFSERPRSGFLVTAFNAVSSKAGRESSSAR
binding: binds

B4: Uncharacterized protein TGME49_246990 (protein, UniProt S8G9E8 1-544)
chain: MRPWSLQTFVGKRRSRKGREPSEAEKSGRPGAEKRELPEPTAFPQGEEDADAPALAKPRSSASGLSSNMGGQGQSVLGEEPGALGGPESLREKAEAEPRDRTSHPRSLQSSASSKDPPRVRNDFSDSSRSRAEESQQSTRETVELSRKTTGRVKDKSQDGLPVSSSAASLKPGSESARGSAARRKPSLHGDLQSEASRVRRSKRSSESESGSDAPASRQSGELASADSRVGKPQSGRRNEERRRVLSGPDTEERQDAGEAGESAEGRPGVRQGKDGTLRVDRSASRDEGSGGRRRLSGSTRRSDDGGGARSTLSRDPIDDRSDAGSRAEGGRQRTRTSSSVLQEEGEGKRTETPEGRENASRDSDDKAFNAAMQPGTELKQLIETALRELDGLDKFLQRPDGVATTALEKTRAVHARVGRDTQRLMDVLEESKRAILEKAEKKRQANVSVKPDQAEQVQQALLDTEAREREKEKTGNLTTKLSKALGMKPTAAKRQLQRLAELRRMTADPSVAPAAPAKMAKATRRASSNVPKITAKNSGSVVV
binding: binds

B5: Uncharacterized protein TGME49_265390 (protein, UniProt S8GGY5 1-529)
chain: MASSEGRPSPSSPSSLPSSSPSFSPSLSSSLFSPSFASVTSLENPPGAPSDAGAASIVALPPSSLGDILSSFTRETRDPRREQREDPRREQRGEALEQARGEAGAAREERQDSHRESRDERERRDLPTSGSLSAVSAHAPLHVVDRSFLRVPLECALRAVKANSRSLYRDVGVVLAYVLKGKMATQLAESSSVEEKINRLDLLIEKLKKIRDKAQHGNEESRNFLLRCQLRVRRLAEEPDILHVHSKLDFSFATYGDRVAWVVYEYLARSGMSLTAELLKEKLDLEPFADGEVHQEILDVLGGLLRESTEEARQWVDAHRAKLKKIGSLFESELHVQHVLELLKKKDAKTAVAYLKANVGPEDFARCVDIRKVVTLTALLEDPPPQYAALFGIERWHRISCLFLHTSAQVYGFSVKPTLVALLQAGFSALKSSVCEEQKSASCPTCLPEWAEYVRQVPTPHRVQSFLICPISGEVMDADNPPLASPDGHVYSTNAVRALAAAAPDGKTVVCPKTKQPYPLERFTRIYVT
binding: binds

B6: Adhesion regulating molecule region protein, putative (TGME49_224110) (protein, UniProt S8G5J3 1-396)
chain: MQEDMVFSLGTSKVTERDVELSFSKCLLHKRPEDSVCYLSGFPDFWVHSVLRPAWTSTRRLSVFPATLFFRSIMAMNFFSSPEGDSVSPESVSFRAGKCRINGNLVSPDTRKGRLQIGEGEDGLTHVRWINRENQQTEDDLIVINDAYLERVPECTTGRVYCLRFTSSDKKMLFWMQEPDASKDHALIEQFNARAGGVPAASNGDTETGASGSSASGTQQTDSGPNAQGIQQLRQLLANYSESLRRARGQPSATPLSEVLNSQTLSRVADDEETVKELVDLMPEGCRTEGDVREALRSAQLAAPMNGLTQAIYTNSSPLLSSMGVTGEDRAAATSPDAMMAFAQALEAHYRPAGEGKEAMSNEAANAAEGNPAGEEKKENEENSEQDTSGGEKKAD
binding: binds

B7: Uncharacterized protein TGME49_305610 (protein, UniProt S8GG32 1-481)
chain: MATTDGTECKRIIDPTPIDDEGVLTLIELDSQHPVIIAANTQIQQLLLAAVNKLNAEAAALEDRSRLSEESSEKSLEDEQVFNAAALLVSDDREKLCDQMKQCRILLDACNRVVVDLDSIDFSAMKVIWGDERSVRQSRKHLTQLVERMSDCLEKTHLFFKSVFGRLPELAPSPTASAAESSLPVAGVAASSATEGELPEKEESERTAEARGTWVAGDLADAHAPGAGRGCGRGEAFLGAGRGRGLVAGRGRGVAGPAGRGGGFGPGESSSEDEAGRVPTASGDPQAASRASPSSEPPAGEEGEADGERTETAGRKHPRADAEEPGVDKWGNRRWKRKPVAHVDWLLKCRTKLCELKERTVHKAISDVFIKERATQETIENLNHNASKLEVVASKPRAEITADDRRVFMRCIESYIAGLDKACALTAKQAMNKRQLMNLFESACKVEKLQTPEELLQEMRSTASLLQTFAFMPPSRDSDSD
binding: binds

B8: Uncharacterized protein TGME49_228630 (protein, UniProt S8GFY7 1-328)
chain: MAHSRERRSPSCQVSPLSPPTASGQRDVSVSERREKTCNAPCVSPFSRMKTSASPSFLLSNWFLIFLLFSLFCVIEGAKPKEGRPVTYGSAVSLVHVLSGFKLFSGKISWGSGSGQQAVTATPSGDKAAAANMLWIVSAPPSGMRRQPLDSPVMEAQMAGSKSSASSEPAPALVTPGAAGEPVRCGSVIFLEHGSSRGTLQATGASSPISSQKEVSVGAGRDTRVAGFKLVCANTKSEMWLTGDIVTFEHVRLGTNLQAKKDHQFTQQNCGRGCPIAGHIEVSVSNEKPRSSWGWSTPPDQWKASAGLMVNKEGEGLFDDLGFDHDEL
binding: binds

B9: Uncharacterized protein TGME49_225120 (protein, UniProt S8F0M5 1-242)
chain: MASRSALHDDLSEDDFLQRRPRKRTWGRTFSVSKTRTGPWGKALKVGTVAILGAAALGIAAKLGHSAAQIYRRQQSETPGGVIGTDPYGNRPPGQAGSPPPSFRSQAEADAAFFSDPLIRETMDSQLPSSSLRRVNEEAYEGNFVSASSAAPAWWLPEEEQNEPIPVVPLPDFSWMLRYVPQRVFDAVNTVNRWIDARERIPVRQDREFGERNQNVGERGLNWSSSLYNVIGPPLKFSPVTW
binding: binds
